Reference: paper PMC11994402
No constants are given. Whether binding was seen depends on the method and setting. In cells and extracts the contact can be indirect.

Molecular target: Glutathione peroxidase 4
Assay: co-IP; GBP2 with GPX4; cells and conditions not told in the text (Supplemental Figs. 9A and B)

B1: guanylate-binding protein 2 (protein, UniProt P32456 1-591)
chain: MAPEINLPGPMSLIDNTKGQLVVNPEALKILSAITQPVVVVAIVGLYRTGKSYLMNKLAGKKNGFSLGSTVKSHTKGIWMWCVPHPKKPEHTLVLLDTEGLGDIEKGDNENDSWIFALAILLSSTFVYNSMGTINQQAMDQLHYVTELTDRIKANSSPGNNSVDDSADFVSFFPAFVWTLRDFTLELEVDGEPITADDYLELSLKLRKGTDKKSKSFNDPRLCIRKFFPKRKCFVFDWPAPKKYLAHLEQLKEEELNPDFIEQVAEFCSYILSHSNVKTLSGGIPVNGPRLESLVLTYVNAISSGDLPCMENAVLALAQIENSAAVEKAIAHYEQQMGQKVQLPTETLQELLDLHRDSEREAIEVFMKNSFKDVDQMFQRKLGAQLEARRDDFCKQNSKASSDCCMALLQDIFGPLEEDVKQGTFSKPGGYRLFTQKLQELKNKYYQVPRKGIQAKEVLKKYLESKEDVADALLQTDQSLSEKEKAIEVERIKAESAEAAKKMLEEIQKKNEEMMEQKEKSYQEHVKQLTEKMERDRAQLMAEQEKTLALKLQEQERLLKEGFENESKRLQKDIWDIQMRSKSLEPICNIL
binding: no binding
